Data: patent publication US20220054606A1, “ASPARAGINASE-INDUCED GLUTAMINE DEPLETION COMBINED WITH BCL-2 INHIBITION FOR TREATMENT OF HEMATOLOGIC AND SOLID CANCERS” (UNIVERSITY OF MARYLAND, BALTIMORE, priority 2018, published 2022)
For at least one compound, name, drawing or mass did not settle the structure. Some of these results come from one statement about several compounds together.

What was measured:
[1] = tested on: plasma Glutamine, Asparagine and Glutamate; test: Pharmacodynamic assay, plasma amino acids, AML45-luc mice; type: in vivo, NRG mice; conditions: data not shown
Description: AML45-luc model was generated as described above. Mice were dosed with vehicle, Ven, PegC or their combination (FIG. 8 legend). On day 39 post start of dosing, mice were euthanized. Plasma was isolated from whole blood after exsanguination and delivered to the Biochemical Genetics lab (University of Maryland Baltimore) on ice. Bone marrow cells was extracted from both femurs as described above. Cells were pelleted and lysed in RIPA buffer (above) and used for western blot analysis.
For exploratory objectives, after confirmation of engraftment of AML45-luc, mice were treated with Ven (days 1-5, 8-12, 15-19, 29-33 and 36-38), PegC (days 1, 8, 15, 29 and 36) and Ven-PegC at doses similar to the efficacy study. Mice were imaged on day 33 and euthanized on day 39. Plasma was isolated and used for amino acid analysis, an important pharmacodynamic endpoint. Bone marrow cells were harvested and analyzed for the expression of proteins of interest.

MOLM-14 cells [2] = test: Whole-transcriptome RNA-seq and qRT-PCR; type: cell-based, human; conditions: MOLM-14, vs control
Description: Total RNA was extracted using Tri Reagent (Sigma Aldrich) following manufacture's protocol. 2 μg of total RNA was treated with DNase I (NEB) and reverse transcribed into cDNA using High-Capacity cDNA Reverse Transcription Kit (Thermo Fisher), followed by qPCR with Power SYBR green PCR master mix (Thermo Fisher) on QuantStudio 7 Flex Real-Time PCR System (Thermo Fisher).
The transcriptome and translatome samples were sequenced at the Institute for Genome Sciences (IGS), Baltimore, Md. using the Illumina HiSeq sequencing platform. Raw sequencing reads generated for each sample were analyzed using the CAVERN analysis pipeline. Read quality was assessed using the FastQC toolkit to ensure good quality reads for downstream analyses. Reads were first aligned to the human reference genome build GRCh38 using HISAT2, a splice-aware alignment software for mapping next-generation sequencing reads. Reads were aligned using default parameters and the strand-specific protocol to generate the alignment BAM files. Read alignments were assessed to compute gene expression counts for each gene using the HTSeq count tool and the human reference annotation (GRCh38.91). The raw read counts were normalized for library size and utilized to assess differential gene expression between the control and drug-treated groups using the R package ‘DESeq’ [56]. […]

[3] = tested on: AML45-luc cells (relapsed AML with complex karyotype); test: In vivo efficacy in AML45-luc orthotopic PDX model
Description: Viably frozen AML-45-YFP-luc cells were thawed, washed with PBS and injected into three NSG mice and allowed to expand in vivo. After 4 weeks, mice were euthanized, cells isolated from bone marrow aseptically and lx10^6 AML45-luc-YFP cells were injected IV into NRG mice for the experiment. Three to ten days later, mice were imaged and robust AML engraftment was confirmed. Mice were sorted into four groups of five mice with the equal mean leukemia burden among the groups. Dosing began on day of sorting with vehicle, Ven (PO, 75 mg/kg, 5 days per week), PegC (IV, 200 IU/kg, once weekly), or Ven-PegC. Mice were imaged weekly by Xenogen to monitor the photon intensity as the surrogate for leukemia burden. Mean photon intensity was calculated by averaging the maximal photon intensity for each mouse on each day of imaging.
AML45 cells were derived from a patient with history of MDS who progressed to AML and later relapsed with a complex karyotype, 46,X,del(X)(p11.4),t(1;3)(p36.1;p25), t(2;?13)(q21;q13),t(2;11)(q12;q25),add(3)(p22),der(3)t(3;?;8)(p22;?;q12.1),der(5)del(5)(p14)t(2; ?;5)(q11.2;?;q35),?t(8;16)(p11.2;p13.3),der(15)t(3;?;8)(q24;?;q12.1),t(17;22)(q21;q13)). AML45 was transduced with lentivirus to express luciferase and yellow fluorescent protein (YFP) (AML45-luc). […] Mice were imaged weekly and survival was monitored. […] Leukemia burden was measured by photon intensity. […]

MOLM-14 cells [4] = test: Analysis of m7GTP-Sepharose-bound proteins (cap-binding complex); type: cell-based, human; conditions: m7GTP enrichment
Description: The affinity purification of proteins associated with the m^7GTP Sepharose (Jena Biosciences, Germany) was performed similarly to that described earlier. Cell lysates were prepared after 24 h of treatment and incubated with m^7GTP-sepharose for 2 h in cap-binding buffer (40 mM 4-(2-hydroxyethyl)-1-piperazineethanesulfonic acid [HEPES], pH 7.6; 120 mM NaCl; 1 mM EDTA; 0.3% 3-[(3-cholamidopropyl)dimethylammonio]-1-propanesulfonate. [CHAPS]). The beads were washed at room temperature three times in cap-binding buffer and boiled with 2× loading dye followed by separation on 4-12% SDS-PAGE and probed for specific antibodies.

MOLM-14 cells [5] = test: Western blotting analysis of AML cell lysates; type: cell-based, human
Description: Cells were lysed with radioimmunoprecipitation assay (RIPA) buffer (Thermo Fisher Scientific) supplemented with cOmplete™, EDTA-free Protease Inhibitor Cocktail (Sigma Aldrich). After thorough mixing and incubation at 4° C. for 30 min, lysates were centrifuged at 10,000 g at 4° C. for 10 min, and supernatants collected. Protein content of lysates was determined, and lysates separated by 4-12% polyacrylamide gel electrophoresis (SDS-PAGE), and electro-transferred onto polyvinylidene difluoride (PVDF) membranes. After blocking with 5% non-fat milk in tris-buffered saline, 0.1% Tween 20 (TBST), membranes were incubated with primary antibodies at 4° C. overnight, followed by 1:3000 horseradish peroxidase (HRP)-conjugated secondary antibody (Santacruz Biotechnology, Dallas, Tex.) for 1 h. Bands were visualized using Pierce Enhanced Chemiluminescence (ECL) Western Blotting Substrate (Thermo Fisher Scientific, Waltham, Mass.). Densitometry analyses were performed using Image Studio (Licor Biosciences) and presented as ratio of target band signal intensity to Actin band signal intensity.

[6] = tested on: primary AML cells AML29 and AML31; test: Primary AML cells: proliferation and LDH cytotoxicity assay; type: cell-based, human; conditions: single agent, in vitro; data not shown
Description: (§1) Cell lines and primary cells were seeded into 96-well plates the afternoon prior to treatment. Approximately 18 h later, Ven and Peg-C were serially diluted in vehicle or growth medium and added to cells. Plates were incubated for 72 h for cell lines and 48 h for primary cells prior to addition of water-soluble tetrazolium (WST-1) (Clontech, Mountain View, Calif.). Plates were read after 4 additional hours of incubation at 37° C. using a BioTek Synergy HT plate reader (BioTek, Winooski, Vt.). Data was analyzed and graphed using GraphPad Prism Software (Graphpad, La Jolla, Calif.).
Primary AML cells were plated at a density of 2.5×10^4 cells/well in 96 well plates in X-Vivo 10 media (Lonza, Walkersville, Md.) then treated the following day with either vehicle (DMSO), Ven ([…] or 12.5 PegC (0.02 IU/mL or 0.005 IU/mL), or Ven-PegC combination. After 24 h or 48 h, cytotoxicity was measured by lactate dehydrogenase (LDH) release using the Cytotox 96 Non-radioactive Cytotoxicity Assay (Promega, Madison, Wis.). Percent cytotoxicity was calculated as (experimental release/maximum release)×100.

AML = conditions: cited from earlier work
[7] = tested on: human AML cell lines (HL-60, K562, MOLM-14, MonoMac-6, MV4-11, THP-1, U937); test: IC50 proliferation assay (WST-1); type: cell-based
Description: as §1

For `CC1(C)CCC(CN2CCN(c3ccc(C(=O)NS(=O)(=O)c4ccc(NCC5CCOCC5)c([N+](=O)[O-])c4)c(Oc4cnc5[nH]ccc5c4)c3)CC2)=C(c2ccc(Cl)cc2)C1` [Ven, venetoclax], the “Amino acid levels in plasma” value [1] was “No significant differences”, the “p90RSK2 levels (qRT-PCR)” value (MOLM-14 cells [2]) was “significantly decreased” and the “Time within which all mice died due to leukemia” value ([3]; Ven 75 mg/kg PO, PegC 200 IU/kg IV weekly, Kaplan-Meier) was ≤ 130 days. For the same molecule, the “Photon intensity (leukemia burden) vs vehicle control group” value ([3]; in vivo imaging) was “slightly lower”, the “4EBP1 recruitment on cap complexes (rank order)” value (MOLM-14 cells [4]) was “Ven-PegC>Ven>PegC” and the “Intracellular levels of BCL-2 or BCL-XL proteins” value (MOLM-14 cells [5]; MOLM-14) was “Neither Ven alone nor Ven-PegC altered”. The p90RSK protein levels (MOLM-14 cells [5]; MOLM-14, 16 h) was “significant decreases”, the “Phosphorylation of ERK” value (MOLM-14 cells [5]; MOLM-14 and MonoMac6) was “markedly reduced” and the “Proliferation of AML29 and AML31” value [6] was “decreased proliferation”. The “Overall objective response rate” value (AML; relapsed setting, in combination with low-intensity chemotherapy, reference 6) was 21%, the “Median time to AML progression” value (AML; single agent Ven, reference 5) was 2.5 months and the Overall response rate (AML; single agent Ven, reference 5) was 19%. For the same molecule, the “Activity of Ven against AML cell lines” value ([7]; 6 of 7 AML cell lines studied) was “micromolar activity”.

For `Nc1ncn([C@H]2C[C@H](O)[C@@H](CO)O2)c(=O)n1` [decitabine], the “Effect of addition of Ven” value ([7]; data not shown) was “modest additive effect”.
